Drug key:
bortezomib (0.005 µM): CC(C)C[C@H](NC(=O)[C@H](Cc1ccccc1)NC(=O)c1cnccn1)B(O)O
temozolomide (10 µM): Cn1nnc2c(C(N)=O)ncn2c1=O
STA-4783 (0.03 µM): CN(NC(=O)CC(=O)NN(C)C(=S)c1ccccc1)C(=S)c1ccccc1
GW441756 (2 µM): Cn1cc(/C=C2\C(=O)Nc3cccnc32)c2ccccc21
CHIR-265 (0.4 µM): Cn1c(Nc2ccc(C(F)(F)F)cc2)nc2cc(Oc3ccnc(-c4ncc(C(F)(F)F)[nH]4)c3)ccc21
lestaurtinib (0.02 µM): C[C@]12O[C@H](C[C@]1(O)CO)n1c3ccccc3c3c4c(c5c6ccccc6n2c5c31)CNC4=O
erlotinib (4 µM): C#Cc1cccc(Nc2ncnc3cc(OCCOC)c(OCCOC)cc23)c1
AZD7762 (0.1 µM): NC(=O)Nc1cc(-c2cccc(F)c2)sc1C(=O)N[C@H]1CCCNC1
KU-55933 (5 µM): O=c1cc(-c2cccc3c2Sc2ccccc2S3)oc(N2CCOCC2)c1

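Human melanoma cells were exposed to a pair of drugs for 72 h in 1,536-well plates and read by automated microscopy after fixing and staining. Values are the share of nuclei positive for cleaved PARP as a percentage of the same share in the DMSO control: 100 is the control level, higher means more apoptosis. Every drug was used at one fixed concentration, the higher of two screened. These are primary screening values without error estimates. Basal and induced levels differ widely between cell lines.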 Only some of the drugs and lines screened are listed, without regard to their results. An entry leaves out what has no value listed here. A dash means that no value is listed here.

Combination: AZD7762 + lestaurtinib
LOX IMVI: 37.4
SK-MEL-2: 295
COLO 792: 687
G-361: 116
WM451Lu: 202
IPC-298: 274
WM1745: 113

Combination: bortezomib + temozolomide
LOX IMVI: 317
SK-MEL-2: 488
COLO 792: 463
G-361: 12700
WM451Lu: 984
IPC-298: 8300
WM1745: 568

Combination: KU-55933 + CHIR-265
501mel: 158
LOX IMVI: 104
SK-MEL-2: 279
COLO 792: 1010
G-361: 410
WM451Lu: 670
IPC-298: 190
WM1745: 175

Combination: temozolomide + CHIR-265
LOX IMVI: 120
SK-MEL-2: 138
COLO 792: 737
G-361: 558
WM451Lu: 114
IPC-298: 256
WM1745: 130

Combination: temozolomide + GW441756
501mel: 125
LOX IMVI: 107
SK-MEL-2: 55.8
COLO 792: 142
G-361: 29.2
WM451Lu: 112
IPC-298: 167
WM1745: 119

Combination: temozolomide + erlotinib
LOX IMVI: 120
SK-MEL-2: 118
COLO 792: 300
G-361: 78.1
WM451Lu: 198
IPC-298: 36.0
WM1745: 139

Combination: CHIR-265 + erlotinib
LOX IMVI: 121
SK-MEL-2: 163
COLO 792: 705
G-361: 840
WM451Lu: 343
IPC-298: 211
WM1745: 171

Combination: AZD7762 + CHIR-265
LOX IMVI: 306
SK-MEL-2: 371
COLO 792: 1230
G-361: 1360
WM451Lu: 566
IPC-298: 246
WM1745: 163

Combination: GW441756 + STA-4783
501mel: 574
LOX IMVI: 178
SK-MEL-2: 99.7
COLO 792: 378
G-361: 48.4
WM451Lu: 27.1
IPC-298: 69.3
WM1745: 316

Combination: erlotinib + bortezomib
LOX IMVI: 252
SK-MEL-2: 540
COLO 792: 483
G-361: 10600
WM451Lu: 303
IPC-298: 3840
WM1745: 586

Combination: lestaurtinib + erlotinib
LOX IMVI: 203
SK-MEL-2: 94.4
COLO 792: 212
G-361: 196
WM451Lu: 122
IPC-298: 292
WM1745: 122

Combination: AZD7762 + KU-55933
501mel: 104
LOX IMVI: 45.7
SK-MEL-2: 65.1
COLO 792: 109
G-361: 156
WM451Lu: 154
IPC-298: 91.1
WM1745: 153

Combination: temozolomide + KU-55933
501mel: 453
LOX IMVI: 70.3
SK-MEL-2: 185
COLO 792: 53.8
G-361: 120
WM451Lu: 74.4
IPC-298: 210
WM1745: 98.2

Combination: KU-55933 + bortezomib
501mel: 991
LOX IMVI: 302
SK-MEL-2: 382
COLO 792: 453
G-361: 10700
WM451Lu: 2090
IPC-298: 9670

Combination: erlotinib + AZD7762
LOX IMVI: 106
SK-MEL-2: 109
COLO 792: 267
G-361: 107
WM451Lu: 261
IPC-298: 291
WM1745: 161

Combination: STA-4783 + CHIR-265
LOX IMVI: 95.1
SK-MEL-2: 231
COLO 792: 2320
G-361: 1930
WM451Lu: 352
IPC-298: 243
WM1745: 290

Combination: KU-55933 + STA-4783
501mel: 1830
LOX IMVI: 264
SK-MEL-2: 40.2
COLO 792: 513
G-361: 607
WM451Lu: 285
IPC-298: 90.2
WM1745: 308

Combination: KU-55933 + erlotinib
501mel: 54.5
LOX IMVI: 133
SK-MEL-2: 229
COLO 792: 218
G-361: 96.4
WM451Lu: 55.7
IPC-298: 78.9
WM1745: 159

Combination: lestaurtinib + CHIR-265
LOX IMVI: 85.3
SK-MEL-2: 101
COLO 792: 626
G-361: 459
WM451Lu: 133
IPC-298: 132
WM1745: 130

Combination: GW441756 + CHIR-265
501mel: 60.1
LOX IMVI: 44.9
SK-MEL-2: 90.2
COLO 792: 953
G-361: 906
WM451Lu: 247
IPC-298: 68.7
WM1745: 159

Combination: bortezomib + lestaurtinib
LOX IMVI: 81.9
SK-MEL-2: 163
COLO 792: 622
G-361: 3460
WM451Lu: 1390
IPC-298: 7840
WM1745: 357

Combination: KU-55933 + GW441756
501mel: 79.8
LOX IMVI: 532
SK-MEL-2: 55.9
COLO 792: 101
G-361: 125
WM451Lu: 36.4
IPC-298: 54.4
WM1745: 130

Combination: KU-55933 + lestaurtinib
501mel: 181
LOX IMVI: 104
SK-MEL-2: 149
COLO 792: 125
G-361: 243
WM451Lu: 104
IPC-298: 52.2

Combination: STA-4783 + AZD7762
LOX IMVI: 196
SK-MEL-2: 70.9
COLO 792: 1500
G-361: 976
WM451Lu: 126
IPC-298: 316
WM1745: 370

Combination: GW441756 + lestaurtinib
501mel: 121
LOX IMVI: 132
SK-MEL-2: 40.5
COLO 792: 196
G-361: 88.5
WM451Lu: 211
IPC-298: 305

Combination: GW441756 + erlotinib
501mel: 201
LOX IMVI: 133
SK-MEL-2: 17.4
COLO 792: 280
G-361: 31.6
WM451Lu: 92.2
IPC-298: 239
WM1745: 157

Combination: bortezomib + STA-4783
LOX IMVI: 1850
SK-MEL-2: 1000
COLO 792: 1190
G-361: 12600
WM451Lu: 3990
IPC-298: 497
WM1745: 776

Combination: AZD7762 + GW441756
501mel: 57.4
LOX IMVI: 122
SK-MEL-2: 69.1
COLO 792: 339
G-361: 32.7
WM451Lu: 228
IPC-298: 55.9
WM1745: 214

Combination: bortezomib + AZD7762
LOX IMVI: 666
SK-MEL-2: 218
COLO 792: 915
G-361: 13800
WM451Lu: 1260
IPC-298: 4250
WM1745: 353

Combination: GW441756 + bortezomib
501mel: 4710
LOX IMVI: 128
SK-MEL-2: 234
COLO 792: 593
G-361: 14800
WM451Lu: 6910
IPC-298: 16700

Combination: temozolomide + lestaurtinib
LOX IMVI: 93.6
SK-MEL-2: 218
COLO 792: 262
G-361: 43.6
WM451Lu: 73.6
IPC-298: 132
WM1745: 145

Combination: erlotinib + STA-4783
LOX IMVI: 117
SK-MEL-2: 65.1
COLO 792: 968
G-361: 500
WM451Lu: 699
IPC-298: 257
WM1745: 289

The last 2 entries again:

Combination	501mel	LOX IMVI	SK-MEL-2	COLO 792	G-361	WM451Lu	IPC-298	WM1745
temozolomide + lestaurtinib	-	93.6	218	262	43.6	73.6	132	145
erlotinib + STA-4783	-	117	65.1	968	500	699	257	289

Data from the primary screen of doi:10.1371/journal.pone.0140310, rounded.